These are yes or no findings as the source states them, for the method shown. Some results given as binding are weak or reduced against the parent protein; the word gives no strength.
Biological target: DNA binding domain of recombinant rat androgen receptor, GST-fusion protein (rat) (UniProt P15207)
Assay: gel retardation

Protein sequences, listed by entry. Tags and fused reporters are not part of them. Residues count along the entry.
UniProt P15207, residues 533-637: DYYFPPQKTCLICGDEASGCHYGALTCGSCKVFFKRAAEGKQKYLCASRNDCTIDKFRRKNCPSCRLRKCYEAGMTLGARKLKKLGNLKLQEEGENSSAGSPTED

Substance: p60 (calreticulin) purified from human osteosarcoma (HOS) cells by affinity chromatography on KLGFFKR-sepharose (from UniProt P27797 18-417)
- binding: binds

Source: patent publication US6518397B1, “Pharmaceuticals for modulating hormone responsiveness” (priority 1995, dated 2003)
